These are yes or no findings as the source states them, for the method shown. Some entries that bind do so weakly or less than the wild type.

The chains behind the UniProt entries cited, without tags or fusion partners. Residues count along the entry.
UniProt Q9Z139, residues 30-403: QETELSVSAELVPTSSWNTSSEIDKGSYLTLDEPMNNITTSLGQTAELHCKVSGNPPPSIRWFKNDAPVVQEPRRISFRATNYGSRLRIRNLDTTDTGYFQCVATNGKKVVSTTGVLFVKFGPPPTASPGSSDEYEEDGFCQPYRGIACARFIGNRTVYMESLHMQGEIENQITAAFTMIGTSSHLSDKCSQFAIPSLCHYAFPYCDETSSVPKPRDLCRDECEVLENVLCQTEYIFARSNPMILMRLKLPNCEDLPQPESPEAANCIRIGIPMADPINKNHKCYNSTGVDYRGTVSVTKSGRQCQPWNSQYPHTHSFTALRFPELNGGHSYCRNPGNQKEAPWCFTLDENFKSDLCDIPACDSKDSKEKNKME

For assay [1], the target named is Recombinant mouse his-tag ROR1 (mouse) (UniProt Q9Z139). The assay can be described thus: ELISA, antibody coated at 5 ug/mL, his-tagged antigen at 2 ug/ml, anti-his HRP. In general terms: In an ELISA, binding on a coated surface is turned into a signal by an enzyme label.
In assay [2] the target is recombinant mouse ROR1-mouse IgG2-Fc fusion protein (mouse) (UniProt Q9Z139). Description: ELISA, mouse ROR1-mouse IgG2-Fc coated at 2 ug/mL, antibody titrated, anti-human IgG-Fc HRP.

B1: RO6D8wt (antibody, V domains shown)
VH: QVQLVQSGAEVKKPGASVKVSCKASGYTFTNYYMHWVRQAPGQGLEWMGIINPSGGSTSYAQKFQGRVTMTRDTSTSTVYMELSSLRSEDTAVYYCARDSSSWYSGWYFDLWGQGTTVTVSS
VL: AIQMTQSPSSLSASVGDRVTITCRASQDVRAHLAWYQQKPGKAPKLLIYAASSLQSGVPSRFSGSGSGTDFTLTISSLQPEDFATYYCQQFNSYPITFGQGTRLEIK
On to B1, for which, in assay [1], the binding result is given as “binds”.

B2: RO6D8-jlv1011 (antibody, V domains shown)
VH: QVQLVQSGAEVKKPGASVKVSCKASGYTFTSKYYHWVRQAPGQGLEWMGIINPTSGSTSYAQKFQGRVTMTRDTSTSTVYMELSSLRSEDTAVYYCARDSSRYSGWYFDLWGQGTTVTVSS
VL: AIQLTQSPSSLSASVGDRVTITCRASQGVSTEIAWYQQKPGKAPKLLIYAASSLQSGVPSRFSGSGSGTDFTLTISSLQPEDFATYYCQQYYGYPIAFGQGTRLEIK
For B2, the binding entry in assay [2] and in assay [1] was “binds” throughout.
